Library screening results

Mtb growth Cornell: 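Whole-cell assay for inhibitors of Mycobacterium tuberculosis growth, labelled Cornell in the record; the read-out is not stated. The concentration is filed as 10 mM, unlikely as a test dose, so the dose is not known. The record gives no direction; compounds strong in two other growth screens of this library score well above the rest, so higher reads as stronger inhibition. About 53,000 compounds were tested under these conditions; 1.7% (about 900) showed 50% or more at least once.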
Mtb heat-shock: 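Assay on Mycobacterium tuberculosis, filed only as a heat shock assay from Cornell; the read-out is not stated. The concentration is filed as 10 mM, unlikely as a test dose, so the dose is not known. The record gives no direction; compounds that gave an IC50 in retests scored well above the rest, so higher reads as stronger inhibition. Of about 69,000 compounds tested this way, about 930 (1.4%) reached 50% or more in at least one test.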

Values are the deposited “Percent Effect”, in %. How 0% and 100% were set is not recorded. Most values in the screen are low, and negative values occur. This is an unselected part of the compounds tested. A dash means the value is not listed here; it may have been measured.

| Compound | Mtb growth Cornell | Mtb heat-shock |
|---|---|---|
| `O=C(c1ccc(-n2cccn2)c(F)c1)N1CCCN2CCCC2C1` (stereo not shown) | - | 15.56 |
| `COc1cc(CNCc2c(C)nn(C)c2N(C)C)ccn1` | 97.38 | 11.35 |
| `Cc1cc2n(n1)CC(CNC1CCN(Cc3ccccn3)CC1)CN2` (stereo not shown) | - | -7.224 |
| `O=C(NCCNc1ncccn1)C1CC(=O)N(Cc2ccco2)C1` (stereo not shown) | - | -4.7 |
| `CCc1ccc(CN(CCCn2ccnc2)Cc2ccc(C)s2)o1.O=C(O)CC(O)(CC(=O)O)C(=O)O` | 67.99 | 103.6 |
| `CC(C)N(C)[C@@H]1CCN(C(=O)[C@H]2CCCO2)[C@H]1Cc1cnn(C)c1` | -34.88 | 5.179 |
| `CCOc1cccc(CNC2CCCN(Cc3noc(C)n3)C2)c1` (stereo not shown) | -75.41 | -21.57 |
| `CCNC(=O)N1CCc2ccc(NC(=O)NCCOCC)cc21` | -24.72 | 8.737 |
| `COCCn1cc(NC(=O)N(CCC(N)=O)Cc2ccccc2)cn1` | 13.44 | -1.75 |
| `Cc1n[nH]cc1C(=O)N1CCCC1c1cc[nH]n1` (stereo not shown) | 7.705 | 1.846 |
| `CCN(CC)C(=O)Cn1ccc2cc(NC(=O)C3CC3)ccc21` | - | 25.7 |
| `CCNc1cc2c(nn1)CCN(C(=O)c1ccc(NC3CC3)nc1)C2` | - | 26.34 |
| `CSc1ncccc1C(=O)NCc1ccc(CS(=O)(=O)NC(C)C)cc1` | - | 2.558 |
| `CCN(C)c1ncnc2c1CCN(C(=O)c1ccc(C)o1)CC2` | 29.15 | -3.165 |
| `O=C(Cc1cc2c(cc1Cl)OCCO2)N1CC[C@H](CO)[C@H](O)C1` | -20.99 | -8.464 |
| `COc1cccc(COCC(=O)NC(C)c2nnc3n2CCC3)c1` (stereo not shown) | -12.6 | -14.12 |
| `CN(c1ccc(CNC(=O)c2c[nH]c(=O)c(Cl)c2)cc1)C1CCCCC1` | 28.74 | 17.44 |
| `CCc1ncc(C(=O)N2CCC(O)(CN3CCOCC3)C(C)(C)C2)cn1` (stereo not shown) | -13.31 | -27.33 |
| `O=C(CCC1CCCCC1)NCc1nnc2ccccn12` | 12.45 | -20.32 |
| `CC(Nc1cccc(CN2CCOC2=O)c1)C(=O)NC(=O)NC(C)(C)C` (stereo not shown) | - | 10.27 |
| `CCCc1noc(C2CCN(C(=O)C3CCCO3)CC2)n1` (stereo not shown) | 14.52 | 5.67 |
| `COCCN1CCC12CCN(C(=O)c1ccc3[nH]ccc3c1)C2` (stereo not shown) | 20.8 | -13.76 |
| `CN(Cc1cccnc1)C1CC2(CCN(c3ccccn3)CC2)C1.O=C(O)C(F)(F)F.O=C(O)C(F)(F)F.O=C(O)C(F)(F)F` | - | -2.81 |
| `O=S(=O)(CCCN1CCCCC1Cn1cncn1)c1ccccc1` (stereo not shown) | - | -13.74 |
| `Cc1cnc2c(c1NCc1ccc3c(c1)OCO3)c(=O)n(C)c(=O)n2C` | -53.85 | -19.59 |
| `CN(CC1CCCN1C)c1nccc(C2CCCC2)n1` (stereo not shown) | -14.13 | -7.99 |
| `Cc1ccc(C(=O)Nc2cc(C(N)=O)ccc2CN(C)C)cc1Cl` | 36.77 | 14.73 |
| `COc1cc(C(=O)N(Cc2cnn(C)c2)C(C)C)ccc1OC(C)C` | -4.413 | 16.19 |
| `CC(=O)N1CCC(c2nccnc2Oc2ccccc2)CC1` | -8.124 | -29.24 |
| `Cc1nc(C(=O)N2CCCC2c2noc(C)n2)c[nH]1` (stereo not shown) | 4.863 | -4.125 |
| `CN(C)C(CNC(=O)N(Cc1ccco1)C1CC1)c1cccs1` (stereo not shown) | 5.806 | -1.044 |
| `CC(C)CNC1(Cc2cc(-c3ccccc3)on2)COC1` | 7.172 | -30.73 |
| `Cc1cc(C2CCCN2C(=O)COc2ccc(CC#N)cc2)on1` (stereo not shown) | -42.06 | 2.385 |
| `CC(NCc1cnc(N2CCN(C)CC2)nc1)c1ccc(F)cc1` (stereo not shown) | 5.596 | -20.1 |
| `O=C(CCC1CC1)N1C[C@@H](CN2CCCC2)[C@@H](CO)C1` | 5.588 | -5.935 |
| `CCC(=O)N1CCC2(CC1)C(=O)N(Cc1cccnc1)CCN2C.O=C(O)C(F)(F)F.O=C(O)C(F)(F)F` | 24.91 | -1.837 |
| `CCCOC1CCCN(c2nc(CC)nc3c2cnn3C)C1` (stereo not shown) | 13.9 | 77.82 |
| `O=C1NCCCCC1Sc1n[nH]c(=O)n1C1CC1` (stereo not shown) | -15.66 | 5.867 |
| `Cc1cc(C)c(OCC(=O)NS(=O)(=O)c2cccnc2)c(C)c1` | - | 0.8665 |
| `CC(C)COCCC(=O)Nc1cccnc1-n1cncn1` | 11.85 | -7.399 |
| `Cn1cccc1C(O)CNS(=O)(=O)c1ccccc1F` (stereo not shown) | -8.118 | 10.12 |
| `Cc1ccc(NC(=O)NC(C)(C)c2noc(C)n2)cc1` | -36.75 | -33.37 |
| `CSC1(CNC(=O)NCc2sccc2C)CCOCC1` | - | -0.331 |
| `Cc1cnc(N2CCCn3c(nnc3Cn3cccn3)C2)nc1` | -8.676 | -20.59 |
| `O=C(O)C(F)(F)F.O=C(O)C(F)(F)F.O=C(O)C(F)(F)F.c1cncc(CN2CCC3(CC2)CC(c2cccnc2)CO3)c1` (stereo not shown) | - | -27.59 |
| `Cc1cc(NCCC(=O)NC2CCS(=O)(=O)C2)nc(-c2ccncc2)n1` (stereo not shown) | 16.12 | 9.645 |
| `CC(O)CN(CC(=O)NC(=O)NC1CC1)c1ccccc1` (stereo not shown) | - | -17.86 |
| `[H][C@@]12CN(C(=O)COC)C[C@]1([H])C(=O)N(Cc1cccc(F)c1)C2` | 13.99 | -12.78 |
| `Cc1cc(C(=O)N2CCCCC2c2nc3cc(F)ccc3[nH]2)nn1C` (stereo not shown) | -5.267 | 12.52 |
| `O=C(O)C(F)(F)F.O=C(c1ccccc1)N1CCCC2(CCN2Cc2cccc(F)c2)C1` (stereo not shown) | 3.337 | 38.05 |
| `CCc1ncncc1C(=O)Nc1ccc2ccn(CCN(C)C)c2c1` | 20.91 | 5.587 |
| `CCC(C)(CNC(=O)Nc1nncs1)N1CCOCC1` (stereo not shown) | 13.89 | 2.48 |
| `CCCNS(=O)(=O)Cc1ccc(Br)cc1` | -4.692 | 29.35 |
| `COc1ccc(C(=O)N2CCC(Oc3ccccc3)(C(=O)O)CC2)o1` | 10.78 | 1.289 |
| `CCNC(=O)CNS(=O)(=O)c1cc(Br)ccc1F` | 0.3804 | 4.226 |
| `Cn1cnc2c1CCN(Cc1noc(-c3ccccc3)n1)C2` | 19.87 | -25.34 |

Some entries from above, unchanged:

Compound	Mtb growth Cornell	Mtb heat-shock
CCN(C)c1ncnc2c1CCN(C(=O)c1ccc(C)o1)CC2	29.15	-3.165
O=S(=O)(CCCN1CCCCC1Cn1cncn1)c1ccccc1 (stereo not shown)	-	-13.74
CC(O)CN(CC(=O)NC(=O)NC1CC1)c1ccccc1 (stereo not shown)	-	-17.86
Cc1cc(C2CCCN2C(=O)COc2ccc(CC#N)cc2)on1 (stereo not shown)	-42.06	2.385
Cn1cnc2c1CCN(Cc1noc(-c3ccccc3)n1)C2	19.87	-25.34
O=C(Cc1cc2c(cc1Cl)OCCO2)N1CC[C@H](CO)[C@H](O)C1	-20.99	-8.464

The values are deposited in ChEMBL (CHEMBL3988442, “University of Dundee, Small-Polar-MMV Screening Library” (2021)).